Data reported in article doi:10.1101/2025.03.21.644421 (bioRxiv, 2025).
These are yes or no findings as the source states them, for the method shown. For some of these results: In cells and extracts the contact can be indirect. Some results given as binding are weak or reduced against the parent protein; the word gives no strength. Sequences can lack the tags named with a protein.

Tests used:
[1] = target: T1, LetA (N-terminal 6xHis2xQH-TEV tagged LetA) (E. coli) (UniProt P0AD03); assay: cryo-EM structure
T1 sequence: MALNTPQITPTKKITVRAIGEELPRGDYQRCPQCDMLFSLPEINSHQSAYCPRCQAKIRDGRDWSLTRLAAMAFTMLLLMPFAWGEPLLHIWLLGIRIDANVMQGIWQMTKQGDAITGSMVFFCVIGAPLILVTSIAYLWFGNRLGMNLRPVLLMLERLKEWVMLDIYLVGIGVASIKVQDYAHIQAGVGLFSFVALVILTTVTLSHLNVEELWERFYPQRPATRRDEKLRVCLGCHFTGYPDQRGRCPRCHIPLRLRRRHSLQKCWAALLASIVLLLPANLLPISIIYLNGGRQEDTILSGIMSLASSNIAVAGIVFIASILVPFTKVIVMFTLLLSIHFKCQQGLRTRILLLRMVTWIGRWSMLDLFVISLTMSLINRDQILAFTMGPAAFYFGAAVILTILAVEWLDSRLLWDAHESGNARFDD

[2] = target: T1, LetA (N-terminal 6xHis2xQH-TEV tagged LetA) (E. coli); assay: SEC
[3] = target: T2, LetA T402 to alanine mutant (His-tagged) (E. coli) (UniProt P0AD03); assay: pull-down
T2 sequence: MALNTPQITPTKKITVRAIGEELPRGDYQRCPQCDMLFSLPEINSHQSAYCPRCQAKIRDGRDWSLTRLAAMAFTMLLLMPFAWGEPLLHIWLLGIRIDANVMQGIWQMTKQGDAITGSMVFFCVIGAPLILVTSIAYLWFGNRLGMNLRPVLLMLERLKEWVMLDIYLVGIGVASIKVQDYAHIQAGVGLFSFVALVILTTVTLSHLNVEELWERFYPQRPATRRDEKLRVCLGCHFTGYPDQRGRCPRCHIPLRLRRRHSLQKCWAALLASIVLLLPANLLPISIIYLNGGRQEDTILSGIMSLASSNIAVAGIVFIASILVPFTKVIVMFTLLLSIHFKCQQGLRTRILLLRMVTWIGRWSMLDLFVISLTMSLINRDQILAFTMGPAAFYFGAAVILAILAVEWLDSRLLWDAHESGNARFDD

[4] = target: T3, LetA S364 to alanine mutant (His-tagged) (E. coli) (UniProt P0AD03); assay: pull-down
T3 sequence: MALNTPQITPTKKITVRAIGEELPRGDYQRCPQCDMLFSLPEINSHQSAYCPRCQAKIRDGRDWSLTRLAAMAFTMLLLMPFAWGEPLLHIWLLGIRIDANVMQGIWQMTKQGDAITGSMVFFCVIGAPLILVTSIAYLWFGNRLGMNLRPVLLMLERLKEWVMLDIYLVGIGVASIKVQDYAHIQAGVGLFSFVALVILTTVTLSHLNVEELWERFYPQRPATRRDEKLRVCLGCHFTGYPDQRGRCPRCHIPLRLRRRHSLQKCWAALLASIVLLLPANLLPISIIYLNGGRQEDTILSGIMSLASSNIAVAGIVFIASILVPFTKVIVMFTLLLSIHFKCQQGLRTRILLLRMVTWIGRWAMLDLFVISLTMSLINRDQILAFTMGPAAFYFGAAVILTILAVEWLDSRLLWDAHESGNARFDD

[5] = target: T4, LetA K328 to alanine mutant (His-tagged) (E. coli) (UniProt P0AD03); assay: pull-down
T4 sequence: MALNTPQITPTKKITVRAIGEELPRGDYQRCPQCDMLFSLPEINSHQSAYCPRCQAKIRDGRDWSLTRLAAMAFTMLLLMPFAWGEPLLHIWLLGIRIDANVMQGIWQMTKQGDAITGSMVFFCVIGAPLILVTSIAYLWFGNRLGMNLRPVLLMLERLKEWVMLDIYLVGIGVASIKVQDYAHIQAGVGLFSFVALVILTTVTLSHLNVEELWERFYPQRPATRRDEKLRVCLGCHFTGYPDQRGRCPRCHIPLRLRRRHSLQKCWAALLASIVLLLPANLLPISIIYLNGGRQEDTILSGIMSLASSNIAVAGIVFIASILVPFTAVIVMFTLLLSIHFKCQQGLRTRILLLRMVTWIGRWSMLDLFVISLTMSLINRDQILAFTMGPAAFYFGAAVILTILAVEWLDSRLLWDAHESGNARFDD

[6] = target: T1, LetA (N-terminal 6xHis2xQH-TEV tagged LetA) (E. coli); assay: pull-down
[7] = target: T5, LetA D367 to alanine mutant (His-tagged) (E. coli) (UniProt P0AD03); assay: pull-down
T5 sequence: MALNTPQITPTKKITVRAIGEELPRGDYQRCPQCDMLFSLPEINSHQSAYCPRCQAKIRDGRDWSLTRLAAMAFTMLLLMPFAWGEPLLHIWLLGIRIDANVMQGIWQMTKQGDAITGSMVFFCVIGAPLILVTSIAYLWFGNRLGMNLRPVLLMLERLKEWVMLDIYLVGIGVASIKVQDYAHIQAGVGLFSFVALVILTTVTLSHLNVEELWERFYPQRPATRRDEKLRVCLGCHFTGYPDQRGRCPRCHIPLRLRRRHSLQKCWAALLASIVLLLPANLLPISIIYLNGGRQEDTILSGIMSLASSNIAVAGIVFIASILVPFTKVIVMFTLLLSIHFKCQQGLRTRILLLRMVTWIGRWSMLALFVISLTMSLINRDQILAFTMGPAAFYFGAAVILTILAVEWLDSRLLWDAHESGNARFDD

[8] = target: T6, LetA S321 to alanine mutant (His-tagged) (E. coli) (UniProt P0AD03); assay: pull-down
T6 sequence: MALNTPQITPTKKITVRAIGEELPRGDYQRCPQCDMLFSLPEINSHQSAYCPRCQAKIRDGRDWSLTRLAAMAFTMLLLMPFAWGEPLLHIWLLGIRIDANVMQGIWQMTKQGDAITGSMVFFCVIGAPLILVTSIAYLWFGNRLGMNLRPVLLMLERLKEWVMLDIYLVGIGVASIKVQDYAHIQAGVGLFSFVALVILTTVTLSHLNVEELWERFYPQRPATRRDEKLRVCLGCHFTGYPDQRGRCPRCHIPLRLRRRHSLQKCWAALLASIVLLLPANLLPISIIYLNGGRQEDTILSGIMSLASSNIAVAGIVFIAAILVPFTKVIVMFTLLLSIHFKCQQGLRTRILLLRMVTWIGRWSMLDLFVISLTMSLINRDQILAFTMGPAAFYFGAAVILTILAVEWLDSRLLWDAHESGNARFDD

[9] = target: T7, LetA D181 to alanine mutant (His-tagged) (E. coli) (UniProt P0AD03); assay: pull-down
T7 sequence: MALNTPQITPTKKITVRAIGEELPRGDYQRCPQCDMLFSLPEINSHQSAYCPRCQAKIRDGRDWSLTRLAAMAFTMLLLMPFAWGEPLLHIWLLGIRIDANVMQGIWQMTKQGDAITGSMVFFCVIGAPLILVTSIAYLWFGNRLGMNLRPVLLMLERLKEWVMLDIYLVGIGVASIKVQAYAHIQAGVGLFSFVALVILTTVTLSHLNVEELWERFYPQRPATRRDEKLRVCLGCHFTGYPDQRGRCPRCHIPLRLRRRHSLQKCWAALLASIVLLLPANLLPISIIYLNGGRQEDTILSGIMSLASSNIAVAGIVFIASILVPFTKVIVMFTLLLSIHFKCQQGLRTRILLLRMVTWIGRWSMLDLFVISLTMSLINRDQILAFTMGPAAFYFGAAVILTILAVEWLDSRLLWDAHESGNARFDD

[10] = target: T8, LetA K178 to alanine mutant (His-tagged) (E. coli) (UniProt P0AD03); assay: pull-down
T8 sequence: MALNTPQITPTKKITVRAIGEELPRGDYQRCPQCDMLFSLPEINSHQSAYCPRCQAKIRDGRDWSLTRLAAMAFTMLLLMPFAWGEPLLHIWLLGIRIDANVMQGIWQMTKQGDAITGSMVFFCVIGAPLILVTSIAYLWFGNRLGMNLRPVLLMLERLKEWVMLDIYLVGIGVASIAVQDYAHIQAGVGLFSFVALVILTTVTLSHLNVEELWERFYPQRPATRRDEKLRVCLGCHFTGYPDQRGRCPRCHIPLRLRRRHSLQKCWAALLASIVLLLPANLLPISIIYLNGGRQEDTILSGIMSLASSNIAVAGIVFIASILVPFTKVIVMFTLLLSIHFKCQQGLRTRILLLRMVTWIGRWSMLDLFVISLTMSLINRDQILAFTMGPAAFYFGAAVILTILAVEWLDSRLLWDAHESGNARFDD

Measured: binding

B1: LetB (Lipophilic Envelope-spanning Tunnel B), untagged (natural protein, E. coli, UniProt P76272 1-877, looked up)
chain: MSQETPASTTEAQIKNKRRISPFWLLPFIALMIASWLIWDSYQDRGNTVTIDFMSADGIVPGRTPVRYQGVEVGTVQDISLSDDLRKIEVKVSIKSDMKDALREETQFWLVTPKASLAGVSGLDALVGGNYIGMMPGKGKEQDHFVALDTQPKYRLDNGDLMIHLQAPDLGSLNSGSLVYFRKIPVGKVYDYAINPNKQGVVIDVLIERRFTDLVKKGSRFWNVSGVDANVSISGAKVKLESLAALVNGAIAFDSPEESKPAEAEDTFGLYEDLAHSQRGVIIKLELPSGAGLTADSTPLMYQGLEVGQLTKLDLNPGGKVTGEMTVDPSVVTLLRENTRIELRNPKLSLSDANLSALLTGKTFELVPGDGEPRKEFVVVPGEKALLHEPDVLTLTLTAPESYGIDAGQPLILHGVQVGQVIDRKLTSKGVTFTVAIEPQHRELVKGDSKFVVNSRVDVKVGLDGVEFLGASASEWINGGIRILPGDKGEMKASYPLYANLEKALENSLSDLPTTTVSLSAETLPDVQAGSVVLYRKFEVGEVITVRPRANAFDIDLHIKPEYRNLLTSNSVFWAEGGAKVQLNGSGLTVQASPLSRALKGAISFDNLSGASASQRKGDKRILYASETAARAVGGQITLHAFDAGKLAVGMPIRYLGIDIGQIQTLDLITARNEVQAKAVLYPEYVQTFARGGTRFSVVTPQISAAGVEHLDTILQPYINVEPGRGNPRRDFELQEATITDSRYLDGLSIIVEAPEAGSLGIGTPVLFRGLEVGTVTGMTLGTLSDRVMIAMRISKRYQHLVRNNSVFWLASGYSLDFGLTGGVVKTGTFNQFIRGGIAFATPPGTPLAPKAQEGKHFLLQESEPKEWREWGTALPK
binds: all assays above
